Data: PubChem BioAssay AID504444 (National Center for Advancing Translational Sciences (NCATS), 2011)
Hit rate of the full screen: of about 360,000 compounds, about 7,500 (2.1%) were called active. This list was built around the results that the source calls inconclusive (neither active nor inactive); the mix of calls is not that of the screen. Calls come from the whole dose curve; as a rule, active = well fitted inhibition curve with a large enough effect; inconclusive = small, poorly fitted or top-dose-only effect, or effect the other way; inactive = flat fitted curve, though single readings scatter. Where the call is inconclusive, the potency comes from a doubtful curve fit.

Assay: Nrf2 qHTS screen for inhibitors; note: nearly all actives have a fitted effect of over 60% in size
Settings: A549 ARE-Fluc reporter, luciferase luminescence, 18-24 h; activity change, negative = inhibition: at 46 µM (top of the series)
Outline: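 A549 ARE_Fluc cells (5000/well, 5% FBS OPTI-MEM) pre-incubated 2 h, then treated with compounds 18-24 h at 37C/5% CO2 in concentration-response. CellTiter-Fluor viability read first; BugLite luciferase luminescence after 15 min at room temperature gives Nrf2 activity.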
% is set by controls: 0 for no effect and ±100 for the full control effect; potency is the fitted concentration of half-maximal effect.

SMILES | Potency | activity change, negative = inhibition
CCOc1ccc(-c2onc(C(F)(F)F)c2-c2cscn2)c(O)c1 | inconclusive: 7.31 µM [falling, partial curve] | –
CC1CCCN(c2ncnc3c2cnn3-c2ccccc2)C1 (configuration not stated) | inconclusive: 0.411 µM [activator, full curve, poor fit] | –
CCc1cccc(C)c1NS(=O)(=O)c1cc(Br)cnc1N | inconclusive: 2.59 µM [falling, partial curve, poor fit] | –
C=CCc1cc(/C=C2/NC(=O)N(CC)C2=O)cc(OCC)c1OCc1ccc(C(=O)O)cc1 | inconclusive: 13 µM [falling, partial curve, poor fit] | –
CN(C)C(CNC(=O)c1ccc2ccccc2c1)c1ccco1 (configuration not stated) | inconclusive: 7.31 µM [activator, partial curve] | –
COC(=O)c1ccccc1NC(=O)c1cc(-c2cccs2)on1 | inconclusive: 6.51 µM [falling, single point] | –
CC1(C)Cc2ccccc2C(/C(C#N)=N/O)=N1 | inconclusive: 20.6 µM [falling, single point] | –
CC1(C)CC(=O)C(C=Nc2ccccc2)=C(O)C1 | inconclusive: 14.6 µM [falling, partial curve, poor fit] | –
CCOc1cc(C2NN=C(c3ccccc3)S2)ccc1OCc1ccc(F)cc1 (configuration not stated) | inconclusive: 11.6 µM [activator, partial curve] | –
COc1ccc(Cl)cc1NC(=O)CN(C)Cc1cccs1 | inconclusive: 20.6 µM [falling, single point] | –
CC(=O)N1CCC(C(=O)NC2CCCc3c2cnn3-c2cc(F)cc(F)c2)CC1 (configuration not stated) | – | inactive: -20.2%
Cc1ccc(NC(=O)COc2cccnc2[N+](=O)[O-])cc1S(=O)(=O)N1CCOCC1 | inconclusive: 25.9 µM [falling, single point] | –
COc1ccc(CCNC(=O)Cn2c(=O)c3cccn3c3ccccc32)cc1OC | inconclusive: 18.4 µM [falling, single point] | –
CN(C)N(Cc1ccccc1)C(=O)C(O)(c1ccccc1)c1ccccc1 | inconclusive: 6.51 µM [falling, partial curve, poor fit] | –
C=CCC[C@H](Cc1ccc(F)cc1)C(=O)OC[C@@H](Cc1c[nH]c2ccccc12)NC(=O)[C@@H](CC=C)CC(=O)N[C@@H](CO)Cc1ccccc1 | inconclusive: 29.1 µM [falling, single point] | –
Cc1cc(C(=O)Nc2cccc3c2O[C@@H](CN(C)S(C)(=O)=O)[C@H](C)CN([C@@H](C)CO)C3=O)n(C)n1 | – | inactive: -7.49%
Cc1cccc(/C=C/c2onc(C)c2S(=O)(=O)N2CCC(C(=O)N3CCCCCC3)CC2)c1 | inconclusive: 13 µM [falling, single point] | –

Random excerpt: two entries already listed
SMILES | Potency | activity change, negative = inhibition
COc1ccc(Cl)cc1NC(=O)CN(C)Cc1cccs1 | inconclusive: 20.6 µM [falling, single point] | –
CC(=O)N1CCC(C(=O)NC2CCCc3c2cnn3-c2cc(F)cc(F)c2)CC1 (configuration not stated) | – | inactive: -20.2%
